Assay results taken from the supplement of paper PMC12819154, “High-throughput peptide-centric local stability assay extends protein–ligand identification to membrane proteins, tissues and bacteria” (Nature Structural & Molecular Biology, 2025).
Some of the results follow. Small differences around the control level are noise.

Sequences of proteins named here, by UniProt entry; tags and fusion partners are left off. A change or cut given only in a name is not applied to a line headed by its entry.
UniProt P08240: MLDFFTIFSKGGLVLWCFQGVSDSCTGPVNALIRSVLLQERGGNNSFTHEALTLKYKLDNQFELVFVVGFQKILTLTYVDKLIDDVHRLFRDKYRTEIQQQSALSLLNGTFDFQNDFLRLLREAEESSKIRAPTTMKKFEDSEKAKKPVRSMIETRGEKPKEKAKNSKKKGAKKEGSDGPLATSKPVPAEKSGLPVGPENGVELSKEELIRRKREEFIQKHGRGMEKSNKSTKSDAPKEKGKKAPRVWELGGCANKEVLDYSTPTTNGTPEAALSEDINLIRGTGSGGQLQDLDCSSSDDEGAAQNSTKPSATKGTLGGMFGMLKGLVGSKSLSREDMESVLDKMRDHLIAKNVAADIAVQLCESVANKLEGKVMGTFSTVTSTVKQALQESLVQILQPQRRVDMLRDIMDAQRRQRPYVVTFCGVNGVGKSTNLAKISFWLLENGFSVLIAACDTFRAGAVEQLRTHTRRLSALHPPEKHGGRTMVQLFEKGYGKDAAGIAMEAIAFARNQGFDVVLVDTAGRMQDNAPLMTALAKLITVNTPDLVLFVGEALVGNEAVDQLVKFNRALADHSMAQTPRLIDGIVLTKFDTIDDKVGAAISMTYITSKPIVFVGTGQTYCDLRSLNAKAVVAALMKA
UniProt P12814, whole entry: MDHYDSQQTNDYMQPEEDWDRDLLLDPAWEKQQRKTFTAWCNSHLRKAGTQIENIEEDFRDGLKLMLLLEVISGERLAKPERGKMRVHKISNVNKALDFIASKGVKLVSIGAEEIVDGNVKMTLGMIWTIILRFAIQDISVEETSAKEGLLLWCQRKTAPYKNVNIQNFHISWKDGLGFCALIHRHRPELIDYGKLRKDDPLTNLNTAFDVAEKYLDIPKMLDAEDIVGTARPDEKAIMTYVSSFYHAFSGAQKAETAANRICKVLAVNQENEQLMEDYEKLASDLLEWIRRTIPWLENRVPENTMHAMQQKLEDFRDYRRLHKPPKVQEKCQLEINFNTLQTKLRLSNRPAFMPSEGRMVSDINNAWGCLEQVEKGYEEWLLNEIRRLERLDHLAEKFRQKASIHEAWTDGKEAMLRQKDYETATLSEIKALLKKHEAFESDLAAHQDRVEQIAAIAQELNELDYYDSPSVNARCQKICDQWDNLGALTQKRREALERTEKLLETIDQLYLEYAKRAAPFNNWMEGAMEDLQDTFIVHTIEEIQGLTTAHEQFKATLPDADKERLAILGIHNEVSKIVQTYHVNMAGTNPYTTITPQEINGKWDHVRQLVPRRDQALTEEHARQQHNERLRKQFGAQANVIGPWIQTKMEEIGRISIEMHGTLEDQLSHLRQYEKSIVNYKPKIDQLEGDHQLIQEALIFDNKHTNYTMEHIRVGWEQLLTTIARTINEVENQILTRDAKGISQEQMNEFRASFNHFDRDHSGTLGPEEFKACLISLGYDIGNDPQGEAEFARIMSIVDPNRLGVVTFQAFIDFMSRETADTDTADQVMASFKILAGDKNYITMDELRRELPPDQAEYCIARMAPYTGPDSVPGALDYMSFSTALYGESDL
UniProt P01137, whole entry: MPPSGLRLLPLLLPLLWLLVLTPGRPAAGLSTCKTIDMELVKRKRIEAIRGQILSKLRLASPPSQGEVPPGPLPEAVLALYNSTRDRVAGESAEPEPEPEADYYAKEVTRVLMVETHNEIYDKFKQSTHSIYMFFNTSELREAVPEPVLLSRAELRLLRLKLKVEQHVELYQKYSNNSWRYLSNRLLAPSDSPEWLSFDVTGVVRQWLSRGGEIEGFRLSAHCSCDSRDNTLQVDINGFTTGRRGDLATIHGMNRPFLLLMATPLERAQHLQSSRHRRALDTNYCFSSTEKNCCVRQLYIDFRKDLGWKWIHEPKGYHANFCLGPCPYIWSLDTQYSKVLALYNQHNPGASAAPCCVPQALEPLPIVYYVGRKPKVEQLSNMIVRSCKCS
UniProt P0CW19: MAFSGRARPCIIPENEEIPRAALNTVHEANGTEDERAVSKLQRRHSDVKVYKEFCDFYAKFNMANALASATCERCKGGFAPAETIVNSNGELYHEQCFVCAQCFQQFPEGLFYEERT
UniProt P11474: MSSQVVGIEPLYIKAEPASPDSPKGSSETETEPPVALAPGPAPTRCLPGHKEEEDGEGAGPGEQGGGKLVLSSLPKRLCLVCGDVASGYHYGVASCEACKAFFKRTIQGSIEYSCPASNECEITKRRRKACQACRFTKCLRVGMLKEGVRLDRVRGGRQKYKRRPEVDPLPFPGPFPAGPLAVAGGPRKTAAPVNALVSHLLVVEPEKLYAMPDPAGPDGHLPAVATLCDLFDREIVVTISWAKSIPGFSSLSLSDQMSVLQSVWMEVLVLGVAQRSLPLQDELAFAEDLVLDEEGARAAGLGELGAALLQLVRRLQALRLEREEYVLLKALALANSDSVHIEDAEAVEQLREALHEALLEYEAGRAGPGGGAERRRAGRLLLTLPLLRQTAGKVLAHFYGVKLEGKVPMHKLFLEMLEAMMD
UniProt P08603, whole entry: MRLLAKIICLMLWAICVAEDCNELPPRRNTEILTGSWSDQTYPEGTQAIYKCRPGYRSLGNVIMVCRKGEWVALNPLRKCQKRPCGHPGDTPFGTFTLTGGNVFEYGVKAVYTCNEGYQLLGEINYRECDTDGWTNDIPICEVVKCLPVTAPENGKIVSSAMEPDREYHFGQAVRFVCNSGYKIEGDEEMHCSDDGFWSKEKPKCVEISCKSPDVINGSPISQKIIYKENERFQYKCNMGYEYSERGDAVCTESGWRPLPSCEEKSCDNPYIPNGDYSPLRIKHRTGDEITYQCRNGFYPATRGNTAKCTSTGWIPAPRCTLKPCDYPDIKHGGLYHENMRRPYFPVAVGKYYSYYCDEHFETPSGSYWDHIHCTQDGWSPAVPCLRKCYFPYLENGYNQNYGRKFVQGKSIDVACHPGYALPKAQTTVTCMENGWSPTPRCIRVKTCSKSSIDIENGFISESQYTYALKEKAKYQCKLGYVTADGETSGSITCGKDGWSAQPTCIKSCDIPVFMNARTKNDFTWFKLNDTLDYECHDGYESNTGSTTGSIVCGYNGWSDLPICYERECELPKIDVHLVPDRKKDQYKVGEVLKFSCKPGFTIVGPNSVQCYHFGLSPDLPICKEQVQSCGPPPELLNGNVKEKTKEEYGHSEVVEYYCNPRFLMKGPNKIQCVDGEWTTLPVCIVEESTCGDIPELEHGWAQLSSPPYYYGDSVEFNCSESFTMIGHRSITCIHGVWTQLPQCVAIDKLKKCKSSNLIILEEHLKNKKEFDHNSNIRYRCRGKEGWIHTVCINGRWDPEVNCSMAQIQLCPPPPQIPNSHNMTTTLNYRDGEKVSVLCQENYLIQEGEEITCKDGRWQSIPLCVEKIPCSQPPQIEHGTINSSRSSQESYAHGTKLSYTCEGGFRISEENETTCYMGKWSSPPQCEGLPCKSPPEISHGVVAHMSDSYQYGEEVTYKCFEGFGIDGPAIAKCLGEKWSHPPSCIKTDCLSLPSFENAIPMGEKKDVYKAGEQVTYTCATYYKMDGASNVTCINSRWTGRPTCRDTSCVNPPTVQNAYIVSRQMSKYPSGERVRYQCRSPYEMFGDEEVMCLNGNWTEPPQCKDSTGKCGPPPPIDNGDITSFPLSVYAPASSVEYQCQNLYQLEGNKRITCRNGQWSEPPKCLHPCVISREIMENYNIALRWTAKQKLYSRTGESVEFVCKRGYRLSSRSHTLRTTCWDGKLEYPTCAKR
UniProt P08754, whole entry: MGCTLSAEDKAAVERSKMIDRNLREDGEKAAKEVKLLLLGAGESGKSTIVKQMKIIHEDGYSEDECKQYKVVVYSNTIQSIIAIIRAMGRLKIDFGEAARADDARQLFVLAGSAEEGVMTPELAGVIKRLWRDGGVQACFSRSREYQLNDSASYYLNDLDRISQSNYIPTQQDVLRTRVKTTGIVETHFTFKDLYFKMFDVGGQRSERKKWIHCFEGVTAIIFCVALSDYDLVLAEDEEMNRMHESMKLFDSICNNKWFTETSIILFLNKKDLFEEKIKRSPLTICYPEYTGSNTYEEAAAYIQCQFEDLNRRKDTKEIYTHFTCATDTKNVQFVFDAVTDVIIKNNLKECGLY
UniProt P10646, whole entry: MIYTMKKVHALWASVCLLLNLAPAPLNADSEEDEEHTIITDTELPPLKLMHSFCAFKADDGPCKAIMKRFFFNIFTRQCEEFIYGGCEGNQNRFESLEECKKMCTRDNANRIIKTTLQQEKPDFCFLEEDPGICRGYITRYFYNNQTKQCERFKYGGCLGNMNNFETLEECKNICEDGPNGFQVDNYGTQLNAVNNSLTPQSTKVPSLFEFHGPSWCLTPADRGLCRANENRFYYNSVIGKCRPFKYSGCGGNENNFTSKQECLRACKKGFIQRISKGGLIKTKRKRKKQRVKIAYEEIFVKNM
UniProt P09884: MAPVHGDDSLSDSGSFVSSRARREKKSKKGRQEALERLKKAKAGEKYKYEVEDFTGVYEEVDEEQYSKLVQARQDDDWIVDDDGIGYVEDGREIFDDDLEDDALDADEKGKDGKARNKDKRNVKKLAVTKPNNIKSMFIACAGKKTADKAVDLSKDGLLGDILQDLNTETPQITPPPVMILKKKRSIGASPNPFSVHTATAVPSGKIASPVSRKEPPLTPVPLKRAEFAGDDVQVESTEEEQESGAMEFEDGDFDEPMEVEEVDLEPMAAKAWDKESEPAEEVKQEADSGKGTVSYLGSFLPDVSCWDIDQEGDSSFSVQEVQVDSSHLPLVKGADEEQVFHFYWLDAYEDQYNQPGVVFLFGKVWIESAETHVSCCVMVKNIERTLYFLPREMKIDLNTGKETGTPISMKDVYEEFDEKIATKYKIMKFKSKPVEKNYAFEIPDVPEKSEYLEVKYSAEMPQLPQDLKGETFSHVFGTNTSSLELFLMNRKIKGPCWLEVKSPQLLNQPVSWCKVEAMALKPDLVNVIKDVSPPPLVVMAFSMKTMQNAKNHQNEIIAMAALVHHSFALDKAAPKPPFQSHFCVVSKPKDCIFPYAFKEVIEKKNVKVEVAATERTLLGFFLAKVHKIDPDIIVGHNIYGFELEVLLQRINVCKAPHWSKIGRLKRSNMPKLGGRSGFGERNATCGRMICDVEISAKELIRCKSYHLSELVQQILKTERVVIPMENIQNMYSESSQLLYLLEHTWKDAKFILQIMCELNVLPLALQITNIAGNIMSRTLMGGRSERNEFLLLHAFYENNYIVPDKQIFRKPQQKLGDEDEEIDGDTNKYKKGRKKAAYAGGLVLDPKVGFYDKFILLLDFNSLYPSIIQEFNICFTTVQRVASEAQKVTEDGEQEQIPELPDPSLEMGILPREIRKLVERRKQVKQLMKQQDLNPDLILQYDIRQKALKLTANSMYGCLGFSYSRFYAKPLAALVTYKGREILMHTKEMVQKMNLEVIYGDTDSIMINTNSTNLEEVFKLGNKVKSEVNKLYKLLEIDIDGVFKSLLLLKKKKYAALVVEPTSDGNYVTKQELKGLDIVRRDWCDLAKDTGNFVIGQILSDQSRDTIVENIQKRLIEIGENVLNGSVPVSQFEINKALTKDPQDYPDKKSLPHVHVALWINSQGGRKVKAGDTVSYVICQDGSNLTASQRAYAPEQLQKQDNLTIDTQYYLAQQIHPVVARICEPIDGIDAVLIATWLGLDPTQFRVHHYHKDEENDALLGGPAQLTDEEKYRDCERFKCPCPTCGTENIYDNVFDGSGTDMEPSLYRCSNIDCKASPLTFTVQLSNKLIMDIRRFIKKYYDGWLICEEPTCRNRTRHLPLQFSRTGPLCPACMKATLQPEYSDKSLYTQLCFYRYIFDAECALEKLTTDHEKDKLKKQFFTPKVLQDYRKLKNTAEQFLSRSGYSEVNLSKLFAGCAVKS
UniProt P02794, whole entry: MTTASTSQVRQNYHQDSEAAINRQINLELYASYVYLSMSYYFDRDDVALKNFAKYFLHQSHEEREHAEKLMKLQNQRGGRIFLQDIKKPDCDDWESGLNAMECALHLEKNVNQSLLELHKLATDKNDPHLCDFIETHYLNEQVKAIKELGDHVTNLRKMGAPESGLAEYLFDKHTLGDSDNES
UniProt P07992: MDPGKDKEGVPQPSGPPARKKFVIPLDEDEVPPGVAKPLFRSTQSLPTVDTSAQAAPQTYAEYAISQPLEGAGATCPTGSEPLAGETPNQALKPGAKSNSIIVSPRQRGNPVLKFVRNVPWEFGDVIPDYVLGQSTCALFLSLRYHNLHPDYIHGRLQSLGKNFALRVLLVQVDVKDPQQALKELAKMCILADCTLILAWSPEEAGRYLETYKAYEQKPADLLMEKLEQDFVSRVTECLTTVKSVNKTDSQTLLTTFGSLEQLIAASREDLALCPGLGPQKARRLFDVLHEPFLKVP
UniProt P00491: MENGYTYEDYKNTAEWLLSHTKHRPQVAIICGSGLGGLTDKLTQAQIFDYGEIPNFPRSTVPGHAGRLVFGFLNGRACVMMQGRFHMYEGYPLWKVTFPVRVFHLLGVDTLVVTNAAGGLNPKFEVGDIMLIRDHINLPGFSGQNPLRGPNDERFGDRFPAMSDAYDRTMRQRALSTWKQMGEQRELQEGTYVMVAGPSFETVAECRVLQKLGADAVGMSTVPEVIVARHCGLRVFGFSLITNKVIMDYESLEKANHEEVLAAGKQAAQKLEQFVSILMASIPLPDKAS

Compound: CN[C@@H]1C[C@H]2O[C@@](C)([C@@H]1OC)n1c3ccccc3c3c4c(c5c6ccccc6n2c5c31)C(=O)NC4 [staurosporine]
Assay: log2 fold change of tryptic peptide abundance, ligand vs vehicle (limited proteolysis) (log2 ratio); higher = more trypsin-susceptible (destabilized)
Details: ligand concentration: 20 uM; sample: K562 cleared lysate; digestion: 4 min, 22 C (HT-PELSA RT4min, Orbitrap Astral)

Row | Target | log2 fold change
1 | UniProt P08240 (peptide sequence: KFEDSEK, peptide start residue: 138) | 0.43
2 | PRPS2 (peptide sequence: PNIVLFSGSSHQDLSQR, peptide start residue: 2) (UniProt P11908) | -0.102
3 | ANXA2 (peptide sequence: KGTDVPKWISIMTER, peptide start residue: 206) (UniProt P07355) | 0.453
4 | ACTN1 (peptide sequence: ILAGDKNYITMDELR, peptide start residue: 835) (UniProt P12814) | 0.407
5 | UniProt P0CB38 (peptide sequence: NLDDTIDDEK, peptide start residue: 300) | 0.0447
6 | HMGCR (peptide sequence: FLSDAEIIQLVNAK, peptide start residue: 461) (UniProt P04035) | 0.763
7 | HARS (peptide sequence: LKAQLGPDESK, peptide start residue: 41) (UniProt P12081) | 0.189
8 | TGFB1 (peptide sequence: AQHLQSSR, peptide start residue: 268) (UniProt P01137) | 0.289
9 | RNH1 (peptide sequence: CKDISSALR, peptide start residue: 45) (UniProt P13489) | 0.255
10 | ALDH2 (peptide sequence: TFVQEDIYDEFVER, peptide start residue: 325) (UniProt P05091) | 0.586
11 | UniProt P0CW19 (peptide sequence: ARPCIIPENEEIPR, peptide start residue: 7) | -0.34
12 | ESRRA (peptide sequence: CLPGHKEEEDGEGAGPGEQGGGK, peptide start residue: 46) (UniProt P11474) | -0.146
13 | CFH (peptide sequence: TTCWDGKLEYPTCAK, peptide start residue: 1216) (UniProt P08603) | -0.0418
14 | GNAI3 (peptide sequence: MFDVGGQR, peptide start residue: 199) (UniProt P08754) | 0.198
15 | CT45A10 (peptide sequence: SQQEINADIK, peptide start residue: 118) (UniProt P0DMU9) | 0.135
16 | ADH5 (peptide sequence: AFELMHSGK, peptide start residue: 358) (UniProt P11766) | 0.309
17 | TFPI (peptide sequence: IAYEEIFVK, peptide start residue: 294) (UniProt P10646) | -0.0868
18 | ALDOC (peptide sequence: ELSDIALR, peptide start residue: 15) (UniProt P09972) | 0.368
19 | POLA1 (peptide sequence: LAVTKPNNIK, peptide start residue: 126) (UniProt P09884) | 0.266
20 | PSAP (peptide sequence: GSAVWCQNVK, peptide start residue: 28) (UniProt P07602) | 0.119

Row | Target | log2 fold change
21 | SRP19 (peptide sequence: TGGADQSLQQGEGSKK, peptide start residue: 122) (UniProt P09132) | -0.126
22 | C0HKE1 (peptide sequence: NDEELNKLLGR, peptide start residue: 90) (UniProt P04908) | 0.0908
23 | FTH1 (peptide sequence: YFLHQSHEEREHAEK, peptide start residue: 55) (UniProt P02794) | -0.593
24 | RPN1 (peptide sequence: VACITEQVLTLVNKR, peptide start residue: 475) (UniProt P04843) | -0.199
25 | ERCC1 (peptide sequence: SNSIIVSPR, peptide start residue: 98) (UniProt P07992) | 0.442
26 | UniProt P0C7V8 (peptide sequence: QRPVLNFESGHTNNVFQAK, peptide start residue: 260) | -0.151
27 | UniProt P08908 (peptide sequence: DFQNAFK, peptide start residue: 158) | -0.192
28 | SSB (peptide sequence: ETDLLILFKDDYFAKK, peptide start residue: 177) (UniProt P05455) | 0.473
29 | SP1 (peptide sequence: WHTGERPFMCTWSYCGKR, peptide start residue: 649) (UniProt P08047) | -0.751
30 | APP (peptide sequence: EWEEAER, peptide start residue: 412) (UniProt P05067) | -0.172
31 | UniProt P00491 (peptide sequence: LGADAVGMSTVPEVIVAR, peptide start residue: 212) | 0.483
32 | HP (peptide sequence: LPECEAVCGKPK, peptide start residue: 142) (UniProt P00738) | 0.162
33 | SMIM13 (peptide sequence: APADEGHRPLT, peptide start residue: 81) (UniProt P0DJ93) | -0.29
34 | UniProt P00451 (peptide sequence: KIQEEIEK, peptide start residue: 1212) | 0.00596
35 | ALAS1 (peptide sequence: TDGGDPSGLLK, peptide start residue: 158) (UniProt P13196) | 0.2
36 | HSP90AB1 (peptide sequence: ALLFIPRRAPFDLFENK, peptide start residue: 331) (UniProt P08238) | 1.14
37 | JUN (peptide sequence: NVTDEQEGFAEGFVR, peptide start residue: 102) (UniProt P05412) | -0.379
38 | UniProt P0CW24 (peptide sequence: CLTAQQQSGER, peptide start residue: 245) | 0.295
39 | ACYP1 (peptide sequence: VILKLDYSDFQIVK, peptide start residue: 86) (UniProt P07311) | 0.556

Two entries drawn at random from the list so far, as already listed:
Row | Target | log2 fold change
31 | UniProt P00491 (peptide sequence: LGADAVGMSTVPEVIVAR, peptide start residue: 212) | 0.483
30 | APP (peptide sequence: EWEEAER, peptide start residue: 412) (UniProt P05067) | -0.172
